Values quoted from earlier work, collected in patent publication US9771549B2, “Cleansing composition containing oligodynamic metal and efficacy enhancing agent” (Conopco, Inc., priority 2014, dated 2017).
For at least one compound, name, drawing or mass did not settle the structure.

Details: in water at 25° C.

Which Ksp does the source give for `[Cl][Ag]` [Silver chloride] here?
Its Ksp is 1.8e-10 mol/L.
